PubChem BioAssay AID504793 | Drosophila RNAi Screening Center – 2011
Screen: 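Knock-downs allowing continued mitosis even though DNA is damaged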 (primary screen). Cells: Drosophila S2R+ cells. Knock-down reagent: long dsRNA against Drosophila genes, about 0.25 µg dsRNA per well. Timing: 4 days of dsRNA, then 4 hours of drug before read-out. Challenge: doxorubicin 0.5 µM for 4 hours to cause double-strand breaks, in cells also given a low, harmless dose of dsRNA against nbs to sensitise the assay. Measurement: 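Per-well count of mitotic cells stained for phospho-histone H3 after doxorubicin exposure, used as mitotic index; counts are raw and not normalised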. Reading the numbers: mitotic cells: higher = more cells in mitosis, weaker G2 arrest. Rule for the call: 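a call needs confirmation in secondary tests, with other dsRNAs and a check of mitotic timing without damage, not just a high primary count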. Meaning of the calls: active = confirmed in follow-up tests; inactive = not confirmed.
The screen tested about 23,000 reagents; this is an unselected part of those with a known target gene and a result. Of all reagents, 62 (0.27%) were called active. 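Calls come from follow-up tests whose scores are not deposited, so confirmed genes may have low counts here; counts are not normalised per plate.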 Raw values vary from plate to plate and are shown uncorrected. Entries without a mark were called inactive.

beta-PheRS (Phenylalanyl-tRNA synthetase, beta-subunit) [DRSC15859] — mitotic cells, replicate 1: 6
beta-PheRS (Phenylalanyl-tRNA synthetase, beta-subunit) [DRSC26218] — mitotic cells, replicate 1: 3
Su(Tpl) (Suppressor of Triplolethal) [DRSC10954] — mitotic cells, replicate 1: 7
Su(Tpl) (Suppressor of Triplolethal) [DRSC26497] — mitotic cells, replicate 1: 1
CG15628 [DRSC00256] — mitotic cells, replicate 1: 5
CG15628 [DRSC00463] — mitotic cells, replicate 1: 7
Usp1 (Ubiquitin specific protease 1) [DRSC14155] — mitotic cells, replicate 1: 10
NtR [DRSC04628] — mitotic cells, replicate 1: 9
NtR [DRSC27686] — mitotic cells, replicate 1: 5
CG14480 [DRSC06452] — mitotic cells, replicate 1: 9
CG1907 [DRSC15399] — mitotic cells, replicate 1: 5
CG9503 [DRSC20186] — mitotic cells, replicate 1: 11
CG9503 [DRSC21766] — mitotic cells, replicate 1: 3
CG3358 [DRSC04992] — mitotic cells, replicate 1: 4
D1 (D1 chromosomal protein) [DRSC16638] — mitotic cells, replicate 1: 7
CCHa2 (CCHamide-2) [DRSC14835] — mitotic cells, replicate 1: 10; mitotic cells, replicate 2: 11
key (kenny) [DRSC04285] — mitotic cells, replicate 1: 2
CG10747 [DRSC02104] — mitotic cells, replicate 1: 8
CBP (sarcoplasmic calcium-binding protein) [DRSC17746] — mitotic cells, replicate 1: 9
kis (kismet) [DRSC00521] — mitotic cells, replicate 1: 7
kis (kismet) [DRSC00625] — mitotic cells, replicate 1: 5
kis (kismet) [DRSC00823] — mitotic cells, replicate 1: 12
kis (kismet) [DRSC39149] — mitotic cells, replicate 1: 7

Targets listed so far whose gene name begins with S or s (2):
Su(Tpl) (Suppressor of Triplolethal) [DRSC10954] — mitotic cells, replicate 1: 7
Su(Tpl) (Suppressor of Triplolethal) [DRSC26497] — mitotic cells, replicate 1: 1
